The values below come from PubChem BioAssay AID328 (DTP/NCI, 2004).

The list shows only some results of the screen, not a fair sample: it is rich in T/C values a quarter to a half above the control, in often repeated tests (any T/C) and in doses without a T/C. Other doses and runs of a compound stand elsewhere. T/C is the treated group as % of the vehicle group. Some entries give survivors of the animals treated and no T/C: the source files T/C as zero there, which appears to mark a toxic dose or a test without result, not a measured value. Some survivor counts are full or nearly so, which does not show that the dose was tolerated: survival well below the control is almost never listed, so the zero probably covers shortened survival too. Survivors were counted at the toxicity check, usually on the fifth day, unless a day is given; later deaths do not show. Schedules are NCI's codes, taken here to give the interval after Q, in days (D) or hours (H), and the number of doses after X. Some doses were run more than once; their values stand side by side, smallest first. Where survival is the endpoint, this PubChem deposit counts one and a half times the control or more as active, and values a quarter to a half above the control carry no call in these data; other NCI protocols may use other cut-offs. Some T/C values carry the count of animals alive at the toxicity check (mostly the fifth day); where none is given, no animal had died by that day.

This assay deals with BDF1 mice, P388 leukemia ip, median survival T/C. The assay can be described thus: NCI In Vivo Anticancer Drug Screen. Data for tumor model P388 Leukemia (intraperitoneal) in B6D2F1 (BDF1) mice. The settings on record: T/C endpoint: median survival time, higher T/C = longer survival. In a few lines: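 Compound-treated tumour-bearing mice were compared with vehicle-treated controls. Survival was recorded, and the value is the treated-group measurement divided by the control-group measurement (T/C).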

Where [1] appears, read: dose: 400.0 mg/kg/injection, schedule: Q01DX009 (ip), vehicle: saline with Tween-80.
Where [2] appears, read: dose: 100.0 mg/kg/injection, schedule: Q04DX003 (ip), vehicle: saline.
Where [3] appears, read: dose: 6.6 mg/kg/injection, schedule: Q04DX003 (ip), vehicle: saline.
[4] abbreviates: dose: 50.0 mg/kg/injection, schedule: Q01DX009 (ip), vehicle: saline.
The mark [5] stands for this setting: dose: 200.0 mg/kg/injection, schedule: Q01DX009 (ip), vehicle: saline.
The mark [6] stands for this setting: dose: 25.0 mg/kg/injection, schedule: Q01DX009 (ip), vehicle: saline.
Where [7] appears, read: dose: 200.0 mg/kg/injection, schedule: Q01DX009 (ip), vehicle: saline with Tween-80.

As to `C=CCNC(=O)NCC=C`, the T/C is 133 % of control (dose: 25.0 mg/kg/injection, schedule: Q01DX010 (ip), vehicle: saline); 133 % of control (dose: 50.0 mg/kg/injection, schedule: Q01DX010 (ip), vehicle: saline); 144 % of control (dose: 200.0 mg/kg/injection, schedule: Q01DX010 (ip), vehicle: saline). Moreover, the survivor count (dose: 400.0 mg/kg/injection, schedule: Q01DX010 (ip), vehicle: saline) is 0 of 6.

`CC(=O)[C@H]1CC[C@H]2[C@@H]3CCC4=CC(=O)[C@H](C)C[C@]4(C)[C@@]3(F)C(=O)C[C@]12C`: the survivor count under setting [1] was 6 of 6.

Take `Cc1ccc(C(=O)O)cc1S(=O)(=O)Cl`: the survivor count runs as follows: (dose: 200.0 mg/kg/injection, schedule: Q04DX003 (ip), vehicle: saline with Tween-80) 3 of 6; under setting [1], 2 of 6; (dose: 400.0 mg/kg/injection, schedule: Q04DX003 (ip), vehicle: saline with Tween-80) 0 of 6.

Take `CCCCCCCCCCCC1CCCC(C)N1` (configuration not stated): the survivor count is 6 of 6 under setting [2] and 6 of 6 (dose: 200.0 mg/kg/injection, schedule: Q04DX003 (ip), vehicle: saline).

As to `CCCCCC(C)(C)O`, under “dose: 50.0 mg/kg/injection, schedule: Q04DX003 (ip), vehicle: saline”, the survivor count was 5 of 6.

With `CSc1ncnc2c1ncn2C1OC(CO)C(O)OC1O` (configuration not stated), the T/C by setting is: (dose: 12.5 mg/kg/injection, schedule: Q01DX009 (ip), vehicle: Klucel (hydroxypropylcellulose) (HPC)) 125 % of control; (dose: 25.0 mg/kg/injection, schedule: Q01DX009 (ip), vehicle: Klucel (hydroxypropylcellulose) (HPC)) 130 % of control; (dose: 25.0 mg/kg/injection, schedule: Q01DX009 (ip), vehicle: saline with Tween-80) 140 % of control; (dose: 50.0 mg/kg/injection, schedule: Q01DX009 (ip), vehicle: Klucel (hydroxypropylcellulose) (HPC)) 145 % of control [5 of 6 alive]; (dose: 50.0 mg/kg/injection, schedule: Q01DX009 (ip), vehicle: saline with Tween-80) 136 % of control. Besides, the survivor count runs as follows: (dose: 100.0 mg/kg/injection, schedule: Q01DX009 (ip), vehicle: Klucel (hydroxypropylcellulose) (HPC)) 1 of 6; (dose: 100.0 mg/kg/injection, schedule: Q01DX009 (ip), vehicle: saline with Tween-80) 5 of 6.

For the compound `Cc1cc(-c2ccccc2)c2ccccc2c1N(CC(=O)O)S(=O)(=O)c1ccccc1`, the survivor count (dose: 66.0 mg/kg/injection, schedule: Q01DX009 (ip), vehicle: saline with Tween-80) is listed as 6 of 6. For the same compound, for the setting “dose: 150.0 mg/kg/injection, schedule: Q01DX009 (ip), vehicle: saline with Tween-80”, the T/C was 130 % of control.

As for `Oc1cc(O)c(CN(CCCl)CCCl)cc1CN(CCCl)CCCl`, the T/C by setting is: (dose: 2.3 mg/kg/injection, schedule: Q01DX009 (ip), vehicle: saline) 129 % of control; under setting [3], 140 % of control; (dose: 12.5 mg/kg/injection, schedule: Q01DX009 (ip), vehicle: saline) 140, 170, 190, 193, 233 % of control. Further, the survivor count by setting is: under setting [4], 3 of 3; (dose: 100.0 mg/kg/injection, schedule: Q01DX009 (ip), vehicle: saline) 3 of 3; under setting [5], 0 of 3; (dose: 400.0 mg/kg/injection, schedule: Q01DX009 (ip), vehicle: saline) 0 of 3 and 0 of 6.

In the case of `CC(O)C1(O)C(O)CC(OC2c3cc4c(c(O)c3[C@@H]3C[C@@]2(C)OC32C=c3cc[nH]c3=N2)C(=O)c2cccc(O)c2C4=O)OC1C` (some centres not stated), the T/C (dose: 4.0 mg/kg/injection, schedule: Q01DX009 (ip), vehicle: saline) was 131 and 144 % of control.

`CCCCCC(CN(C)C)C(O)/C=C\c1ccccc1` (configuration not stated): the survivor count is 6 of 6 under setting [6] and 0 of 6 under setting [5].

Regarding `CC1CCCC2(CN=C(Nc3ccccc3)O2)C1` (configuration not stated), the survivor count (dose: 400.0 mg/kg/injection, schedule: Q01DX001 (ip), vehicle: Klucel (hydroxypropylcellulose) (HPC)) was 2 of 6.

As for `CC#CCOCC1CN(C)C(=O)O1` (configuration not stated), the survivor count under setting [2] is recorded as 6 of 6.

On to `CN1c2ccc(Cl)cc2C(=O)NC1c1ccc([N+](=O)[O-])s1` (configuration not stated), for which the T/C under setting [7] was 136 % of control. Under setting [1], the survivor count is listed as 2 of 6.

Regarding `Nc1cc(N)cc(Cc2ccccc2)c1`, where the note is “dose: 400.0 mg/kg/injection, schedule: Q01DX009 (ip), vehicle: Klucel (hydroxypropylcellulose) (HPC)”, the survivor count is given as 1 of 6.

Regarding `O=C1CSC(=O)CS1`, the survivor count under setting [7] is on record as 4 of 6.

Consider `Cc1nn(CCO)c(C)c1N=[N+]([O-])c1c(C)nn(CCO)c1C`, for which the T/C is 126 % of control (dose: 30.0 mg/kg/injection, schedule: Q01DX009 (ip), vehicle: saline with Tween-80) and 132 % of control [6 of 7 alive] (dose: 60.0 mg/kg/injection, schedule: Q01DX009 (ip), vehicle: saline with Tween-80).

Regarding `CC(=O)OC1CC(OC2C(O)CC(OC3C(O)CC(OC4CCC5(C)C(CCC6C5CCC5(C)C(C7=CC(=O)OC7)CCC65O)C4)OC3C)OC2C)OC(C)C1OC1OC(CO)C(O)C(O)C1O` (configuration not stated), the survivor count (dose: 10.0 mg/kg/injection, schedule: Q01DX010 (ip), vehicle: carboxymethylcellulose (CMC)) is recorded as 4 of 6 and the survivor count (dose: 20.0 mg/kg/injection, schedule: Q01DX010 (ip), vehicle: carboxymethylcellulose (CMC)) was 2 of 6.

For `NC(=O)CC(N)C(=O)O` (configuration not stated), the T/C was 140 % of control (dose: 200.0 mg/kg/injection, schedule: Q01DX010 (ip), vehicle: saline with Tween-80) and 136 % of control (dose: 800.0 mg/kg/injection, schedule: Q01DX010 (ip), vehicle: saline with Tween-80).

Regarding `Oc1ccccc1O.[O-]c1ccccc1[O-].[O-]c1ccccc1[O-].[O]=[V+2]`, for the setting “dose: 37.5 mg/kg/injection, schedule: Q04DX003 (ip), vehicle: saline”, the T/C is 145 % of control. Further, the survivor count is given as 2 of 6 (dose: 55.0 mg/kg/injection, schedule: Q01DX009 (ip), vehicle: saline); 1 of 6 (dose: 85.0 mg/kg/injection, schedule: Q01DX009 (ip), vehicle: saline); 0 of 6 (dose: 125.0 mg/kg/injection, schedule: Q01DX009 (ip), vehicle: saline).

With `NCCCCS(=O)(=O)Nc1ccc(Nc2c3ccccc3nc3cc([N+](=O)[O-])ccc23)cc1`, the T/C by setting is: (dose: 4.4 mg/kg/injection, schedule: Q04DX003 (ip), vehicle: saline) 136 % of control; under setting [3], 136 % of control; (dose: 8.8 mg/kg/injection, schedule: Q04DX003 (ip), vehicle: saline) 131 % of control; (dose: 10.0 mg/kg/injection, schedule: Q04DX003 (ip), vehicle: saline) 145 % of control; (dose: 13.2 mg/kg/injection, schedule: Q04DX003 (ip), vehicle: saline) 140 % of control; (dose: 20.0 mg/kg/injection, schedule: Q04DX003 (ip), vehicle: saline) 140 % of control. For the same compound, the T/C (dose: 22.0 mg/kg/injection, schedule: Q04DX003 (ip), vehicle: saline) was 127 % of control and the T/C (dose: 30.0 mg/kg/injection, schedule: Q04DX003 (ip), vehicle: saline) was 136 % of control. Further, the survivor count (dose: 400.0 mg/kg/injection, schedule: Q04DX003 (ip), vehicle: saline) is listed as 6 of 6.

In the case of `N=C(N)SCc1c2ccccc2cc2ccccc12`, the T/C was 127 % of control (dose: 88.0 mg/kg/injection, schedule: Q04DX003 (ip), vehicle: Klucel (hydroxypropylcellulose) (HPC)); 131 % of control (dose: 132.0 mg/kg/injection, schedule: Q04DX003 (ip), vehicle: Klucel (hydroxypropylcellulose) (HPC)); 145 % of control (dose: 132.0 mg/kg/injection, schedule: Q04DX003 (ip), vehicle: saline with Tween-80); 136 % of control (dose: 200.0 mg/kg/injection, schedule: Q04DX003 (ip), vehicle: Klucel (hydroxypropylcellulose) (HPC)); 145 % of control (dose: 300.0 mg/kg/injection, schedule: Q04DX003 (ip), vehicle: Klucel (hydroxypropylcellulose) (HPC)).

`Nc1cc(I)c2cccnc2c1O`: the T/C is 133 % of control under setting [6] and 145 % of control under setting [4].
